Source: PMC6403362
These are yes or no findings as the source states them, for the method shown. In cells and extracts the contact can be indirect. Some binding calls cover weakened binding; strength is not graded here. Sequences can lack the tags named with a protein.

Molecular target: T1, GFP-MTR4 (UniProt P42285)
T1 sequence: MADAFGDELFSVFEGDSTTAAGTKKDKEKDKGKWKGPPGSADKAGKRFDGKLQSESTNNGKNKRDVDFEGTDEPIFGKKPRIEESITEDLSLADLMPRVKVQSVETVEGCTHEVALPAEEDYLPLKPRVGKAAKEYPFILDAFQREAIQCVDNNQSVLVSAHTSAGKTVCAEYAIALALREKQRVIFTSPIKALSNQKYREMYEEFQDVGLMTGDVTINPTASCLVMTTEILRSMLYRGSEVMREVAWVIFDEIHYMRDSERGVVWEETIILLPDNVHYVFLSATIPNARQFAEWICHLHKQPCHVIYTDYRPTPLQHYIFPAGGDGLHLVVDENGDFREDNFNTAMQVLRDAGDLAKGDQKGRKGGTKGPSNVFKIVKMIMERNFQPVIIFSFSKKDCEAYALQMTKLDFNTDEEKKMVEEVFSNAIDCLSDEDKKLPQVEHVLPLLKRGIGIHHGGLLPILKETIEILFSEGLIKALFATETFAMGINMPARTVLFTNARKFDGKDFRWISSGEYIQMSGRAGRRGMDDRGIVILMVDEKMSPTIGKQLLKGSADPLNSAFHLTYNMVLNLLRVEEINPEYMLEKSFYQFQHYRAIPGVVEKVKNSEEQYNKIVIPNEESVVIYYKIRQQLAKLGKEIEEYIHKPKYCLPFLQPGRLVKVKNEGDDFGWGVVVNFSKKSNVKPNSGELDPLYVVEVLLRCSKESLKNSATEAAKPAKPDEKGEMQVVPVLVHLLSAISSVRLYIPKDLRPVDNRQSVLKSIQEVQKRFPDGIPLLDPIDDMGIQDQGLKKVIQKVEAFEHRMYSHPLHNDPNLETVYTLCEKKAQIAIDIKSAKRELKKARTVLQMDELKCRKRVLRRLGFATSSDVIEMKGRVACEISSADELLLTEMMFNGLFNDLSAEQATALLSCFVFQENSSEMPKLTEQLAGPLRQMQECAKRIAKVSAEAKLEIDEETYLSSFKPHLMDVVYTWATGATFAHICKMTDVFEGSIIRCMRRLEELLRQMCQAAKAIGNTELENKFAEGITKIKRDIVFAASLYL
Experiment: co-IP; GFP-MTR4 transfected into HCT116:TIR1, DIS3-AID or EXOSC10-AID cells (EXOSC10-AID cells treated or not treated with auxin, 2 h); lysis in 150mM NaCl, 2.5mM MgCl2, 20mM Tris.HCl pH7.5, 1% Triton X-100 with Benzonase; GFP-TRAP beads 1 hour at 4°C; western blotting with α-GFP, α-EXOSC2, α-EXOSC10

- binding: binds
B1: EXOSC10-AID (enzyme, UniProt Q01780 1-885)
chain: MAPPSTREPRVLSATSATKSDGEMVLPGFPDADSFVKFALGSVVAVTKASGGLPQFGDEYDFYRSFPGFQAFCETQGDRLLQCMSRVMQYHGCRSNIKDRSKVTELEDKFDLLVDANDVILERVGILLDEASGVNKNQQPVLPAGLQVPKTVVSSWNRKAAEYGKKAKSETFRLLHAKNIIRPQLKFREKIDNSNTPFLPKIFIKPNAQKPLPQALSKERRERPQDRPEDLDVPPALADFIHQQRTQQVEQDMFAHPYQYELNHFTPADAVLQKPQPQLYRPIEETPCHFISSLDELVELNEKLLNCQEFAVDLEHHSYRSFLGLTCLMQISTRTEDFIIDTLELRSDMYILNESLTDPAIVKVFHGADSDIEWLQKDFGLYVVNMFDTHQAARLLNLGRHSLDHLLKLYCNVDSNKQYQLADWRIRPLPEEMLSYARDDTHYLLYIYDKMRLEMWERGNGQPVQLQVVWQRSRDICLKKFIKPIFTDESYLELYRKQKKHLNTQQLTAFQLLFAWRDKTARREDESYGYVLPNHMMLKIAEELPKEPQGIIACCNPVPPLVRQQINEMHLLIQQAREMPLLKSEVAAGVKKSGPLPSAERLENVLFGPHDCSHAPPDGYPIIPTSGSVPVQKQASLFPDEKEDNLLGTTCLIATAVITLFNEPSAEDSKKGPLTVAQKKAQNIMESFENPFRMFLPSLGHRAPVSQAAKFDPSTKIYEISNRWKLAQVQVQKDSKEAVKKKAAEQTAAREQAKEACKAAAEQAISVRQQVVLENAAKKRERATSDPRTTEQKQEKKRLKISKKPKDPEPPEKEFTPYDYSQSDFKAFAGNSKSKVSSQFDPNKQTPSGKKCIAAKKIKQSVGNKSMSFPTGKSDRGFRYNWPQR
